Experimental data taken from US7258861B2, “TNF-derived peptides for use in treating oedema” (Innogenetics N.V., priority 2001, dated 2007).
For part of these data: At least one peptide structure holds a part that was inferred or is arguable (an end, a ring closure or a residue). Some of these results come from one statement about several compounds together. Positions of bridges follow the written chain, without caps; N, C: chain ends. Residues, ends and D or L forms follow the SMILES beside them.

Key:
isolated rat lungs [1] = assay: Isolated blood perfused flooded rat lung (weight, lung mechanics, PV curves, histology); conditions: TNF 5 μg, peptides 1 mg
isolated rat lungs [2] = assay: Isolated lung perfusion experiments (blood perfused, flooded with NaCl); conditions: after 150 min; intratracheal pretreatment, wt TNF 1 μg/lung, tip peptide 1 mg/lung
Description: Lungs of female Whistar rats weighing about 300 g were isolated as described in DeCampos et al. (1993). The lungs were injected intratracheally with either 500 μl of sterile […], wild type murine TNF (1 μg/lung) or mTNF tip peptide (Ltip (SEQ ID NO:6), see above; 1 mg/lung). Subsequently, the lungs were perfused with blood isolated from the same rat. Thirty minutes later, the lungs were injected intratracheally with 2 ml of sterile […] solution which leads to a weight increase of about 2 g (FIG. 5). The weight evolution was then followed continuously for 150 min (FIG. 5).

Compound | lung weight change over time after alveolar flooding (isolated rat lungs [1]; 2 hours reperfusion after 2 ml saline) | lung mechanics (peak AWP, Cdyn, Raw) after alveolar flooding (isolated rat lungs [1]; 2 hours reperfusion) | decrease of lung weight (isolated rat lungs [2]) [%]
CC(C)C[C@@H]1NC(=O)[C@H](CCC(=O)O)NC(=O)[C@H](Cc2c[nH]c3ccccc23)NC(=O)[C@@H]2CCCN2C(=O)[C@H](CCCCN)NC(=O)[C@H]([C@@H](C)O)NC(=O)CNC(=O)[C@@H](N)CSSC[C@@H](C(=O)O)NC(=O)[C@H](Cc2ccc(O)cc2)NC(=O)[C@H](C)NC(=O)[C@@H]2CCCN2C(=O)[C@H](CCCCN)NC(=O)[C@H](CCC(=O)O)NC(=O)[C@H](CC(=O)O)NC(=O)[C@@H]2CCCN2C(=O)CNC1=O [cyclic mu scrambl Tip, reference compound] (H-CGTKPWELGPDEKPAYC-OH; disulfide 1-17) | no significant change in weight over time | no difference from the saline-treated group | 
GG-CGPKDTPEGAELKPWYC (GGCGPKDTPEGAELKPWYC; N-terminal GG; listed as Mus musculus) [LTip] |  |  | 25 to 50
